Data published in publication PMC7994846.
Results are given in words; binding and its absence hold for the method and conditions named. Binding seen in cells or lysates may run through a third protein. Some entries that bind do so weakly or less than the wild type.

Protein sequences, listed by entry. Tags and fused reporters are not part of them.
UniProt Q02248: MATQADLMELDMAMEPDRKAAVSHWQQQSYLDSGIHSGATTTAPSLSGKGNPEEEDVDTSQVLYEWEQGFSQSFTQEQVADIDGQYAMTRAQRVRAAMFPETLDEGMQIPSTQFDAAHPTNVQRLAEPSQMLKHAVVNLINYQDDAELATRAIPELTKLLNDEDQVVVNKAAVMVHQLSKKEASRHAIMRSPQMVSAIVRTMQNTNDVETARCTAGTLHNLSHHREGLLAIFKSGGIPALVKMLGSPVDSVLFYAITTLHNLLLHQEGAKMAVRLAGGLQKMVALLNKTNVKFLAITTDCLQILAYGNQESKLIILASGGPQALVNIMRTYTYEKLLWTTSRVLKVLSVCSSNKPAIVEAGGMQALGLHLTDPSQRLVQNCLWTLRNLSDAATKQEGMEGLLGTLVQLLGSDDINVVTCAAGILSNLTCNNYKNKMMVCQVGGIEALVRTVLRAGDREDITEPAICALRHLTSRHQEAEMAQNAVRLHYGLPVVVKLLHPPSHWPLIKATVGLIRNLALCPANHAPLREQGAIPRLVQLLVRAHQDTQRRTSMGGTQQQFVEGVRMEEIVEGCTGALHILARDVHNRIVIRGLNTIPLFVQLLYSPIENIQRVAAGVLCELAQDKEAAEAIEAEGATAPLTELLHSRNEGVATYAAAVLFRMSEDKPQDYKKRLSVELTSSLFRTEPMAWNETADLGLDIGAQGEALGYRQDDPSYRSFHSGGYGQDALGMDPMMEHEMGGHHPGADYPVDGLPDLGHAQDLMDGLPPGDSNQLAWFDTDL
UniProt P47811: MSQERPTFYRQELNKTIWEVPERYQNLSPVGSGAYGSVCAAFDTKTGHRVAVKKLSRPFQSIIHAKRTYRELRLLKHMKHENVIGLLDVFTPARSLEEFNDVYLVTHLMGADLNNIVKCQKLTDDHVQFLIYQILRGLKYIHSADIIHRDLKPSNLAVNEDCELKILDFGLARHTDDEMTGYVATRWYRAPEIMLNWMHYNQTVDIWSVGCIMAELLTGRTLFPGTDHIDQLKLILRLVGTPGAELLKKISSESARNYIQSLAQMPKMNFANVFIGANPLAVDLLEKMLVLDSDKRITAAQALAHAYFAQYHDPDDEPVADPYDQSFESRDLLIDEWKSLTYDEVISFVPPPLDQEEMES

Target: endogenous mouse β-catenin (mouse (endogenous in C57BL/6 and APC^Min/+ colon tissue)) (UniProt Q02248)
Assay: co-IP; endogenous proteins, nuclear and cytoplasmic fractions of C57BL/6 normal colon tissue and AOM-treated APC^Min/+ adenocarcinoma tissue; IgG as negative control

- binding: binds
Substance: endogenous mouse p38α (from UniProt P47811 1-360) (enzyme)
